According to the supplement of paper PMC5355238:
Where a name gives a salt, the structure may show the parent alone. ± gives the standard deviation of the averaged measurements. The list shows a part of the results. Repeats are few or missing, and single values can be far off.

The molecules below were run on Reh (assay: S-phase gammaH2AX median, Z-score vs plate median (drug alone); higher = more S-phase DNA damage). Conditions: MK1775 concentration 0 nM; 10 µM; 4 h.

Structure (SMILES) | S-phase gammaH2AX median (Z-score)
CN1CCN(c2cccc(Nc3nc4c(-c5ccc(S(C)(=O)=O)cc5)cccn4n3)c2)CC1 | -0.07
CNNCc1ccc(C(=O)NC(C)C)cc1 [Procarbazine hydrochloride (Matulane)] | 0.0893
NS(=O)(=O)c1cc2c(cc1Cl)NCNS2(=O)=O [Hydrochlorothiazide] | 0.0661
CN(C)CCC=C1c2ccccc2C=Cc2ccccc21 [Cyclobenzaprine hydrochloride] | -0.033
CC(c1cc2ccccc2s1)N(O)C(N)=O (configuration not stated) [Zileuton] | 0.0769
CC(=O)Oc1cc(C(C)C)c(OCCN(C)C)cc1C [Moxisylyte hydrochloride] | -0.0473
CC1=C(/C=C/C(C)=C/C=C/C(C)=C/C(=O)Nc2ccc(O)cc2)C(C)(C)CCC1 [Retinoic acid p-hydroxyanilide] | 0.0693
CC1=C(/C=C/C(C)=C/C=C/C(C)=C/C(=O)Nc2ccc(O)cc2)C(C)(C)CCC1 [Fenretinide] | 0.000387
COc1cc2c(cc1OC)[C@@H](c1ccccc1)CN(C)CC2 | 0.394
CCN(CC)CCOC(=O)C1(C2CCCCC2)CCCCC1 [Dicyclomine hydrochloride] | 0.0819
CC(N/C(=N\C#N)Nc1ccncc1)C(C)(C)C (configuration not stated) [Pinacidil] | -0.0781
C[N+]1(C)CCC(OC(=O)C(c2ccccc2)c2ccccc2)CC1 [4-DAMP methiodide] | 0.0661
Oc1cc(O)c2c(c1)O[C@H](c1ccc(O)c(O)c1)[C@@H](O)C2 [(+)-Catechin Hydrate] | -0.0272
CN(C)CCCN1c2ccccc2Sc2ccc(C(F)(F)F)cc21 [Triflupromazine hydrochloride] | -0.367
N=C(NC(=O)c1nc(Cl)c(N)nc1N)Nc1ccccc1 [Phenamil methanesulfonate] | 0.206
COc1cc(C(=O)OCCCN2CCCN(CCCOC(=O)c3cc(OC)c(OC)c(OC)c3)CC2)cc(OC)c1OC [Dilazep hydrochloride] | -0.0346
COC(=O)C1=C(C)NC(C)=C([N+](=O)[O-])C1c1ccccc1C(F)(F)F (configuration not stated) | 0.0854
COc1ccc(-c2ccc3c(N4CCOC[C@@H]4C)nc(N4CCOC[C@@H]4C)nc3n2)cc1CO | -0.0182
C#CC(N)CCC(=O)O (configuration not stated) [gamma-Acetylinic GABA] | -0.0641
NCCC[C@](N)(C(=O)O)C(F)F (racemic) [DL-alpha-Difluoromethylornithine hydrochloride] | 0.0535
N#Cc1ccc(C(c2ccc(C#N)cc2)n2cncn2)cc1 [Letrozole] | -0.00812

Structure (SMILES) | S-phase gammaH2AX median (Z-score)
CN1CCN(C2=Nc3ccccc3Oc3ccc(Cl)cc32)CC1 [Loxapine succinate] | 0.00473
CC(=O)S[C@@H]1CC2=CC(=O)CC[C@]2(C)[C@H]2CC[C@@]3(C)[C@@H](CC[C@@]34CCC(=O)O4)[C@H]12 [Spironolactone] | -0.0467
C#Cc1cccc(Nc2ncnc3cc(OC)c(OCCCCCCC(=O)NO)cc23)c1 | 0.11
NNCCc1ccccc1 [Phenelzine sulfate] | -0.0213
NC1(C(=O)O)CCCCC1 [1-Amino-1-cyclohexanecarboxylic acid hydrochloride] | -0.0563
CN1CCN(CC/C=C2/c3ccccc3Sc3ccc(S(=O)(=O)N(C)C)cc32)CC1 [Thiothixene hydrochloride] | -0.574
CC(C)(C=O)Cc1cc(C(C)(C)C)c(O)c(C(C)(C)C)c1 | 0.0913
CCCNC[C@H](O)COc1ccccc1C(=O)CCc1ccccc1 [(S)-(-)-propafenone hydrochloride] | 0.116
N#Cc1c(-c2ccccc2)no[n+]1[O-] [4-Phenyl-3-furoxancarbonitrile] | 0.097
CCn1c(=O)c2[nH]c(-c3ccccc3)nc2n(CC)c1=O [1,3-Diethyl-8-phenylxanthine] | -0.0388
NCC(O)C1CCCCCCC1 (configuration not stated) [2-Cyclooctyl-2-hydroxyethylamine hydrochloride] | -0.00388
CN1CCC(=C2c3ccccc3C=Cc3ccccc32)CC1 [Cyproheptadine hydrochloride] | 0.0563
CC(=O)Nc1cccc(-n2c(=O)n(C3CC3)c(=O)c3c(Nc4ccc(I)cc4F)n(C)c(=O)c(C)c32)c1 | -0.0313
CC[N+](C)(C)c1cccc(O)c1 [Edrophonium chloride] | 0.0598
COc1ccc(CCN(C)CCCOc2ccc(S(=O)(=O)c3c(C(C)C)n(C)c4ccccc34)cc2)cc1OC | -0.148
Cc1ccc(-c2csc3ncnc(SCCC(=O)O)c23)cc1 | 0.242
NCCc1c[nH]cn1 [Histamine dihydrochloride] | -0.157
O=C(/C=C/C#Cc1cccc(NS(=O)(=O)c2ccccc2)c1)NO [Oxamflatin] | 1.62
Cc1cn[nH]c1 [4-Methylpyrazole hydrochloride] | -0.0781
OCCN1CCN(CC/C=C2/c3ccccc3Sc3ccc(C(F)(F)F)cc32)CC1 [cis-(Z)-Flupenthixol dihydrochloride] | -0.18
O=C(O)CCCCCCCC(=O)O [Azelaic acid] | -0.0796

Structure (SMILES) | S-phase gammaH2AX median (Z-score)
CC(=Cc1ccc(C(=O)O)cc1)c1ccc2c(c1)C(C)(C)CCC2(C)C | -0.0467
COC(=O)Nc1nc2cc(C(=O)c3cccs3)ccc2[nH]1 [Nocodazole] | -0.0804 ± 0.19
C=CC(N)CCC(=O)O (configuration not stated) [(?)-gamma-Vinyl GABA] | -0.1
CC(C)(C)c1cnc(CSc2cnc(NC(=O)C3CCNCC3)s2)o1 | 0.134
CC1(C)CCC=[N+]1[O-] [5,5-Dimethyl-1-pyrroline-N-oxide] | -0.0157
CC1(C)CCC(NC(=O)[C@@H](N)CCC(=O)O)CC1 | 0.0781
O=C(O)C1CCNCC1 [Isonipecotic acid] | 0.0126
O=C1NC(=O)C(c2ccccc2[N+](=O)[O-])=C1Nc1ccc(O)c(Cl)c1 | 0
Oc1ccc(C2CNCCc3c2cc(O)c(O)c3Cl)cc1 (configuration not stated) [Fenoldopam bromide] | -0.18
CCN(CC)CCCC(C)Nc1ccnc2cc(Cl)ccc12 (configuration not stated) [Chloroquine diphosphate] | -0.0621
CNCCNS(=O)(=O)c1cccc2cnccc12 [H-8 dihydrochloride] | 0.111
CCNC(=O)[C@H]1O[C@@H](n2cnc3c(N)nc(NCCc4ccc(CCC(=O)O)cc4)nc32)[C@H](O)[C@@H]1O | 0.0971
C[C@](N)(Cc1ccc(O)cc1)C(=O)O [L-alpha-Methyl-p-tyrosine] | 0.0331
C[N+](C)(C)CCOP(=O)(O)OP(=O)([O-])OC[C@H]1O[C@@H](n2ccc(N)nc2=O)[C@H](O)[C@@H]1O [Citicoline sodium] | -0.0621
CN=c1nc(-c2ccccc2)n(-c2ccccc2)s1 | 0.147
c1ccc2c(c1)CCCC2C1=NCCN1 (configuration not stated) [Tetrahydrozoline hydrochloride] | -0.0868
CNc1ncnc2c1ncn2[C@@H]1O[C@H](CO)[C@@H](O)[C@H]1O [N6-Methyladenosine] | -0.289
N[C@@H](CC(=O)O)C(=O)O [L-Aspartic acid] | 0.035
O=C(OCCN1CCOCC1)C1(c2ccccc2)CCCCC1 | 0.0237
CC(C)C[C@H](NC(=O)[C@H](Cc1ccccc1)NC(=O)c1cnccn1)B(O)O [Bortezomib (Velcade)] | -0.0128
COc1ccc(CC(C)NCC(O)c2ccc(O)c(NC=O)c2)cc1 (configuration not stated) [Formoterol] | 0.0409

Structure (SMILES) | S-phase gammaH2AX median (Z-score)
CS(=O)(=O)c1ccc(C(=O)Nc2ccc(Cl)c(-c3ccccn3)c2)c(Cl)c1 [Vismodegib (GDC-0449)] | 0.0329
CCOC(=O)N1CCC(=C2c3ccc(Cl)cc3CCc3cccnc32)CC1 [Loratadine] | 0.21
CCCCN1CCC(n2c(=O)[nH]c3ccccc32)CC1 [NS 521 oxalate] | 0.0142
CC1(C)CCC(c2ccc(Cl)cc2)=C(CN2CCN(c3ccc(C(=O)NS(=O)(=O)c4ccc(N[C@H](CCN5CCOCC5)CSc5ccccc5)c(S(=O)(=O)C(F)(F)F)c4)cc3)CC2)C1 [ABT-263 (Navitoclax)] | 0.144
O=C1NC(=O)/C(=C\c2cccc(C(F)(F)F)c2)S1 | 0.182
C[C@]12CCC(=O)C=C1CC[C@@H]1[C@@H]2C(=O)C[C@@]2(C)[C@H]1CC[C@]2(O)C(=O)CO [Cortisone] | -0.173
COCCCC/C(=N\OCCN)c1ccc(C(F)(F)F)cc1 [Fluvoxamine maleate] | -0.117
O=S(=O)(O)C1CCNCC1 [Piperidine-4-sulphonic acid] | 0.151
COc1cc2nc(N3CCN(C(=O)OCc4ccccc4)[C@H](C(=O)NC(C)(C)C)C3)nc(N)c2cc1OC | -0.214
CNC(=O)[C@H]1O[C@@H](n2cnc3c(N)ncnc32)[C@H](O)[C@@H]1O [5'-N-Methyl carboxamidoadenosine] | 0.101
CCCCCCCCCCCCCCCC(=O)NCC(COP(=O)([O-])OCC[N+](C)(C)C)OCC (racemic) [rac-2-Ethoxy-3-hexadecanamido-1-propylphosphocholine] | -0.126
CCc1ccc(CCOc2ccc(CC3SC(=O)NC3=O)cc2)nc1 (configuration not stated) [Pioglitazone (Actos)] | 0.193
O=C(CCCCCCC(=O)Nc1cccnc1)NO [Pyroxamide] | 0.383
Cc1ccc(S(=O)(=O)C=CC#N)cc1 | 0.0684
Cc1ccc(N(CC2=NCCN2)c2cccc(O)c2)cc1 [Phentolamine mesylate] | 0.296
CC(C(=O)O)c1ccc(CC2CCCC2=O)cc1 (configuration not stated) [loxoprofen] | -0.0598
O=C(c1cc(Cc2n[nH]c(=O)c3ccccc23)ccc1F)N1CCN(C(=O)C2CC2)CC1 [Olaparib (AZD2281)] | 1.15
Clc1ccc2c(c1)C(N1CCNCC1)=Nc1ccccc1O2 [Amoxapine] | -0.0563
O=C(O)CCc1nc(-c2ccccc2)c(-c2ccccc2)o1 [Oxaprozin] | 0.0781

A few values from above.
For S-phase gammaH2AX median (Z-score), Cc1ccc(S(=O)(=O)C=CC#N)cc1 has the entry 0.0684
For S-phase gammaH2AX median (Z-score), CCCCN1CCC(n2c(=O)[nH]c3ccccc32)CC1 [NS 521 oxalate] has the entry 0.0142
For S-phase gammaH2AX median (Z-score), COc1cc2nc(N3CCN(C(=O)OCc4ccccc4)[C@H](C(=O)NC(C)(C)C)C3)nc(N)c2cc1OC has the entry -0.214

Reformatted field by field: part of the list above.
Cc1ccc(S(=O)(=O)C=CC#N)cc1
  S-phase gammaH2AX median (Z-score): 0.0684
Cc1ccc(N(CC2=NCCN2)c2cccc(O)c2)cc1 [Phentolamine mesylate]
  S-phase gammaH2AX median (Z-score): 0.296
